Data as given in PubChem BioAssay AID504786 (Drosophila RNAi Screening Center, 2011)

Purpose: 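Knock-downs reducing HIF reporter induction by the iron chelator DFO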 (primary screen)
Cells: Drosophila S2 cells with a stable HIF luciferase reporter
Reagent: long dsRNA against Drosophila genes, about 0.2 µg dsRNA per well of a 384-well plate
Timing: three days of knock-down, then 20 h of DFO before reading
Challenge: desferrioxamine (DFO) at 100 µM, an iron chelator that mimics hypoxia, for 20 h
Measurement: 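HIF reporter luminescence in cells given 100 µM DFO for 20 h, using the mouse ldh-a hypoxia-response element, scored as per-plate z-scores; higher means greater loss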
Scale: z-score: higher = stronger loss of HIF reporter signal
In all, the deposit lists about 21,000 reagents; this is an unselected part of those that have a named target and a result. 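Primary screen; positive scores mean lost reporter signal, so the sign may be inverted from the usual convention.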 A plus sign joins genes that one reagent is predicted to hit. Not all columns of the deposit are shown.

z-score, replicate 1, by gene knocked down and reagent
CG33169 (GeneID 40504): DRSC11853 -0.3
CG31088 (GeneID 318590): DRSC13123 0.1
CG31343 (GeneID 326133): DRSC15887 -0.1
CG11537 (GeneID 38373): DRSC08200 -0.2
CG14797 (GeneID 31123): DRSC17955 -0.3
l(2)k14505 (GeneID 35399): DRSC03106 0
CG14823 (GeneID 38772): DRSC10194 -0.1
CG3104 (GeneID 33486): DRSC00567 0.1
CG4991 (GeneID 32695): DRSC19928 -0.3
CG30001 (GeneID 246383): DRSC05191 -0.3
CG9451 (GeneID 40118): DRSC11074 -0.1
Cdc5 (GeneID 38062): DRSC08577 -0.2
CLIP-190 (GeneID 35042): DRSC03283 -0.3
mldr (GeneID 31568): DRSC18100 -0.2
Cyp318a1 (GeneID 32172): DRSC19784 -0.3
CG11356 (GeneID 32178): DRSC19401 -0.3
CG5003 (GeneID 43344): DRSC15694 -0.1
CG12229 (GeneID 39945): DRSC09868 0
LysD + LysC (retired record): DRSC08674 -0.2
MESR6 (GeneID 40083): DRSC10720 -0.2
CG7202 (GeneID 40376): DRSC11818 -0.2
CG9330 (GeneID 40131): DRSC11066 -0.3
CG30487 (GeneID 246646): DRSC05377 -0.3
ctrip (GeneID 40596): DRSC12242 -0.5; DRSC12287 -0.5
TwdlC (GeneID 43245): DRSC14749 -0.2
Task7 (GeneID 41125): DRSC16477 -0.3
CG10492 (GeneID 35177): DRSC02064 0.6
Aduk (GeneID 41112): DRSC16451 -0.3
Sf3b3 (GeneID 38093): DRSC08370 -0.1
CG42542 (GeneID 8674000): DRSC15549 0.2
Lsm12a (GeneID 32167): DRSC19702 0.1
Cpr76Bc (GeneID 40122): DRSC11062 -0.3
CG12684 (GeneID 31390): DRSC17875 -0.3
La (GeneID 35305): DRSC03358 -0.3
CG9394 (GeneID 37399): DRSC04550 -0.2
CG7156 (GeneID 42187): DRSC16207 -0.3
CG9287 (GeneID 34194): DRSC03186 -0.4
alc (GeneID 35931): DRSC07062 -0.4
CG7079 (GeneID 42488): DRSC16192 -0.5
Bace (GeneID 34182): DRSC02197 -0.6
CG33259 (GeneID 2768950): DRSC10854 -0.3
CG14662 (GeneID 40614): DRSC12248 0
Gadd45 (GeneID 35646): DRSC06033 -0.3
CG13126 (GeneID 34323): DRSC02222 0
tomboy40 (GeneID 35553): DRSC04918 -0.3
RhoGEF64C (GeneID 38578): DRSC08318 -0.3; DRSC08319 -0.2
CG15706 (GeneID 36799): DRSC06577 -0.2
CG7044 (GeneID 42497): DRSC16180 -0.2
Ugt36D1 (GeneID 35138): DRSC02600 -0.2
CG11583 (GeneID 326206): DRSC08202 0.6
CG7208 (GeneID 42172): DRSC16212 -1
Alp6 (GeneID 35981): DRSC06710 -0.4
CAHbeta (GeneID 41070): DRSC14449 -0.4
Ance (GeneID 34805): DRSC01865 -0.4
HINT1 (GeneID 33471): DRSC00548 -0.3
CG10383 (GeneID 35123): DRSC02050 -0.3
CG32182 (GeneID 317898): DRSC09508 -0.2
CG10657 (GeneID 39423): DRSC09768 -0.3
Blm (GeneID 41366): DRSC16911 0
CG7632 (GeneID 40357): DRSC11842 -0.2
wda (GeneID 42750): DRSC15579 -0.5
Pbp95 (GeneID 40949): DRSC15448 0.1
Ih (GeneID 36589): DRSC07445 -0.4
PAN3 (GeneID 38369): DRSC08190 -0.4
CG42458 (GeneID 2768945): DRSC10335 -0.4
ASPP (GeneID 37422): DRSC04305 2.5
CG14411 (GeneID 32408): DRSC19597 -0.3
mRpL16 (GeneID 31150): DRSC18550 -0.3
CG3091 (GeneID 31210): DRSC18274 -0.3
yellow-e2 (GeneID 41652): DRSC15169 0
CG4313 (GeneID 31169): DRSC18514 -0.3
CG8677 + CG31626: DRSC01838 0.1
CG7126 (GeneID 42202): DRSC16201 -0.4
blanks (GeneID 38620): DRSC09757 -0.5
CG33253 (GeneID 2768889): DRSC19547 0; DRSC20053 -0.5
CG14881 (GeneID 41990): DRSC15005 -0.3
EMC6 (GeneID 42992): DRSC14386 0
Atac1 (GeneID 33977): DRSC03155 -0.3
Girdin (GeneID 38385): DRSC08292 -0.2
CG13856 (GeneID 42628): DRSC14706 -0.3
FMRFa (GeneID 36030): DRSC07428 -0.3
Arl6 (GeneID 37236): DRSC07031 -0.3
l(2)41Ab (GeneID 5740691): DRSC21007 -0.5
CG3347 (GeneID 33538): DRSC00597 -0.1
Sxl + CG14425 (retired record): DRSC18721 -0.4; DRSC18722 -0.2
CG7367 (GeneID 34094): DRSC03049 -0.3
Cpr49Ae (GeneID 36351): DRSC07201 -0.3
CG34054 (GeneID 3885601): DRSC05277 -0.2
rb (GeneID 31381): DRSC18826 -0.3
CG3588 (GeneID 31278): DRSC18473 -0.1
CG18258 (GeneID 32708): DRSC19798 -0.4
CG12728 (GeneID 31526): DRSC17883 -0.3
CG9030 (GeneID 32427): DRSC20139 -0.3
Bx (GeneID 32846): DRSC19350 2.9
Gr93a (GeneID 42568): DRSC14593 0.8
Etf-QO (GeneID 36031): DRSC06111 -0.2
Vha44 (GeneID 36826): DRSC07572 0; DRSC07573 -0.3
Dic1 (GeneID 41640): DRSC14125 -0.1
CG30416 (GeneID 246603): DRSC04565 -0.3
TFAM (GeneID 42433): DRSC15552 0
CG6738 (GeneID 42732): DRSC16104 -0.5

14 entries from above, set out differently:
gene knocked down | DRSC id | z-score, replicate 1
ctrip (GeneID 40596) | DRSC12287 | -0.5
TwdlC (GeneID 43245) | DRSC14749 | -0.2
Task7 (GeneID 41125) | DRSC16477 | -0.3
CG10492 (GeneID 35177) | DRSC02064 | 0.6
Aduk (GeneID 41112) | DRSC16451 | -0.3
Sf3b3 (GeneID 38093) | DRSC08370 | -0.1
CG42542 (GeneID 8674000) | DRSC15549 | 0.2
Lsm12a (GeneID 32167) | DRSC19702 | 0.1
Cpr76Bc (GeneID 40122) | DRSC11062 | -0.3
CG12684 (GeneID 31390) | DRSC17875 | -0.3
La (GeneID 35305) | DRSC03358 | -0.3
CG9394 (GeneID 37399) | DRSC04550 | -0.2
CG7156 (GeneID 42187) | DRSC16207 | -0.3
CG9287 (GeneID 34194) | DRSC03186 | -0.4
